The target in test [1] is T1, d14^seto fused to GAL4-BD (Arabidopsis thaliana) (UniProt Q9SQR3).
T1 sequence: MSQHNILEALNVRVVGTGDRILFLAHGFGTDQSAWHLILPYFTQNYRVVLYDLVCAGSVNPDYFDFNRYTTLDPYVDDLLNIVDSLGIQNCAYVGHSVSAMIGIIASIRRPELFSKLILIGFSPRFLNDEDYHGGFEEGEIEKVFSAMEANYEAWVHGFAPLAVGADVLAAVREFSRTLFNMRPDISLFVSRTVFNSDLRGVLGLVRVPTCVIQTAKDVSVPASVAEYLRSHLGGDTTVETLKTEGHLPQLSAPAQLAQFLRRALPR
The experiment in a line: two-hybrid; as a1 but selective medium supplemented with acetone (control), no GR24^5DS.

Test [2] addresses T1, d14^seto fused to GAL4-BD (Arabidopsis thaliana). The experiment in a line: two-hybrid; D14 or d14^seto fused to GAL4-BD, SMXL proteins and domains fused to GAL4-AD; serial dilutions of yeast on selective medium (-His low stringency, -His -Ade higher stringency) supplemented with 2 μM GR24^5DS.
The target in test [3] is T2, DWARF14 (D14) fused to GAL4-BD (Arabidopsis thaliana) (UniProt Q9SQR3).
T2 sequence: T1 sequence with L169P
The test is described as above.

Residue numbers refer to the chain shown, from its start. These are yes or no findings as the source states them, for the method shown. Binding calls can cover weak binding; strength is not graded here. Sequences can lack the tags named with a protein.

Turning to “D1M domains of SMAX1 (SMAX1D1M) fused to GAL4-AD (Arabidopsis thaliana) (domain or fragment)”, the binding result in test [1], in test [2] and in test [3] was “binds” throughout.
“D1M domains of SMXL7 (SMXL7D1M) fused to GAL4-AD (Arabidopsis thaliana) (domain or fragment)”: the binding entry in test [3] is reported as “binds”.

(Values after paper PMC9073322.)
